Laboratory results taken from the supplement of paper PMC10849652.
The list shows a part of the results.

Protein sequences, listed by entry. Tags and fused reporters are not part of them. Lines headed by an entry give the natural chain unless they say otherwise; changes in a name come on top.
UniProt P13489: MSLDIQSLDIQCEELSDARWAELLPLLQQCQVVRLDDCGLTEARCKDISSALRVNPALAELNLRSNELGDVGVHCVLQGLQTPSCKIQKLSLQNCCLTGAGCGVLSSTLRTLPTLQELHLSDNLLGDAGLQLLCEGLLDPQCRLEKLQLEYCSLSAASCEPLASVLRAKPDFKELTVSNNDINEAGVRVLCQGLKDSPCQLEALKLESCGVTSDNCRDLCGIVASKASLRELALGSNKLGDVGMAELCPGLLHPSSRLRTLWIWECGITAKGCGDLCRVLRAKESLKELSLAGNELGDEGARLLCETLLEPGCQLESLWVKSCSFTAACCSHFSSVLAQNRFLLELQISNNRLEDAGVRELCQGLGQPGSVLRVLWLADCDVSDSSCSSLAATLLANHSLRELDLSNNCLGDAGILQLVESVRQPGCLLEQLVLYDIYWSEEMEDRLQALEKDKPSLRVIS
UniProt P78346: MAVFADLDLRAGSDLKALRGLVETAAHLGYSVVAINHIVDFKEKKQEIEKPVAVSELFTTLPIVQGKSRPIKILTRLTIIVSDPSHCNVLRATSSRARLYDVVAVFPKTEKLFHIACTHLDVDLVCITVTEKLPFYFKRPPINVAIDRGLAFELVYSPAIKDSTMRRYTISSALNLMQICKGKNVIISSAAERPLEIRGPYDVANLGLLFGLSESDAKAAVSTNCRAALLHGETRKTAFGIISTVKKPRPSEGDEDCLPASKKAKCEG
UniProt P10155: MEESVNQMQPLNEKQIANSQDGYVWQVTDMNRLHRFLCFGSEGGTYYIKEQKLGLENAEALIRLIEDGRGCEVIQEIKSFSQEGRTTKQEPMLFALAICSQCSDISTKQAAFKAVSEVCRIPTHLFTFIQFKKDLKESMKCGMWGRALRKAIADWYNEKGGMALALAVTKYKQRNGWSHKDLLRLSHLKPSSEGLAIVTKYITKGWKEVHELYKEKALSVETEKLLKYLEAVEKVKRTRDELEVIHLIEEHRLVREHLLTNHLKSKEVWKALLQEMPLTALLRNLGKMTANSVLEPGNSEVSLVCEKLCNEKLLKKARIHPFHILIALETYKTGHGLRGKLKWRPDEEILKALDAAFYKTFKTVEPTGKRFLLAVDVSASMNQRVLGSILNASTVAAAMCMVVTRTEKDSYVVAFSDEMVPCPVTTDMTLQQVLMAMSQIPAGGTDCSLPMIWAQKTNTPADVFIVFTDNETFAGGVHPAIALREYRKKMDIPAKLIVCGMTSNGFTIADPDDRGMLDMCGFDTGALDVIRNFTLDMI
UniProt Q7LG56, whole entry, looked up: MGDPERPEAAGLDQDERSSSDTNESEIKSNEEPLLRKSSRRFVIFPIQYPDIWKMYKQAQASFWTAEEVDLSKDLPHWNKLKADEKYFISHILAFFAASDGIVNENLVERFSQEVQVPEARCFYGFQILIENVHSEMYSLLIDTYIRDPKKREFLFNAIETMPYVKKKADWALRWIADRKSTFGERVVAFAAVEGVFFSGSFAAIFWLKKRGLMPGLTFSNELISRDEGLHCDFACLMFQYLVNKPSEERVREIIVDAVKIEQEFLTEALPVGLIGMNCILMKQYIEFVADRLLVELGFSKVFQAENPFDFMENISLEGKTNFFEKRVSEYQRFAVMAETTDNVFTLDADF
UniProt O75695: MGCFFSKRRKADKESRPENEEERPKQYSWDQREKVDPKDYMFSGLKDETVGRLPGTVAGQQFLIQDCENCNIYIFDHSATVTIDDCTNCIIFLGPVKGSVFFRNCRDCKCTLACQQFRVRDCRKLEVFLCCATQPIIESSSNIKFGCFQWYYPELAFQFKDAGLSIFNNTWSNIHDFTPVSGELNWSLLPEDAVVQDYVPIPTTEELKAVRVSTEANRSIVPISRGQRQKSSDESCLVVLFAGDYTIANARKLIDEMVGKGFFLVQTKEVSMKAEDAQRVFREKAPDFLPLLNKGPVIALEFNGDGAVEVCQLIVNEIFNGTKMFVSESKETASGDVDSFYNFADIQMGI
UniProt O75818: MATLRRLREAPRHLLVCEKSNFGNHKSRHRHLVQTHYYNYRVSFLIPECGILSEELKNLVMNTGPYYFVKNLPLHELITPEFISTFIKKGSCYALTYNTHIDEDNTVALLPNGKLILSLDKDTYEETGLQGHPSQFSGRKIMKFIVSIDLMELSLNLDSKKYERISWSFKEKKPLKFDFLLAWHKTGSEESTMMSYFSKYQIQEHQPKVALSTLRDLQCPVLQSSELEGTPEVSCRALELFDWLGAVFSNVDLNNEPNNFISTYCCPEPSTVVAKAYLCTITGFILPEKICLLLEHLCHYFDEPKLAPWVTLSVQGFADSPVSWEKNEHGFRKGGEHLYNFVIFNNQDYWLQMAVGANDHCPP
UniProt Q96BH1: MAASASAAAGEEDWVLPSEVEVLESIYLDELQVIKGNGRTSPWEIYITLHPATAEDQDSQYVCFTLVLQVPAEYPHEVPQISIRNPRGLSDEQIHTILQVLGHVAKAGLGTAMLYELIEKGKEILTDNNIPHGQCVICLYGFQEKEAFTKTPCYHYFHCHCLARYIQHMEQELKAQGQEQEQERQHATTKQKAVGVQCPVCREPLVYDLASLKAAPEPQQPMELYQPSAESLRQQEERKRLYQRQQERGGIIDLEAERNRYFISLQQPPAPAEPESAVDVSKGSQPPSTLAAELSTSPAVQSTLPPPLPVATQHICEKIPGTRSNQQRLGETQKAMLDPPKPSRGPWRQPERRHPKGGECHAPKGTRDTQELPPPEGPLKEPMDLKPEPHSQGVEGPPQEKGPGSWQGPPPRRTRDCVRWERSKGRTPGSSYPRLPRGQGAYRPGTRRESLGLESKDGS
UniProt Q86WX3: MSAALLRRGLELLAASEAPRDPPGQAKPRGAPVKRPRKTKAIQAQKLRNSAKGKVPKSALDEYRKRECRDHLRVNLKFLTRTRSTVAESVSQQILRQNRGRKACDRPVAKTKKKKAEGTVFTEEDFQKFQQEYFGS
UniProt Q9P2E9: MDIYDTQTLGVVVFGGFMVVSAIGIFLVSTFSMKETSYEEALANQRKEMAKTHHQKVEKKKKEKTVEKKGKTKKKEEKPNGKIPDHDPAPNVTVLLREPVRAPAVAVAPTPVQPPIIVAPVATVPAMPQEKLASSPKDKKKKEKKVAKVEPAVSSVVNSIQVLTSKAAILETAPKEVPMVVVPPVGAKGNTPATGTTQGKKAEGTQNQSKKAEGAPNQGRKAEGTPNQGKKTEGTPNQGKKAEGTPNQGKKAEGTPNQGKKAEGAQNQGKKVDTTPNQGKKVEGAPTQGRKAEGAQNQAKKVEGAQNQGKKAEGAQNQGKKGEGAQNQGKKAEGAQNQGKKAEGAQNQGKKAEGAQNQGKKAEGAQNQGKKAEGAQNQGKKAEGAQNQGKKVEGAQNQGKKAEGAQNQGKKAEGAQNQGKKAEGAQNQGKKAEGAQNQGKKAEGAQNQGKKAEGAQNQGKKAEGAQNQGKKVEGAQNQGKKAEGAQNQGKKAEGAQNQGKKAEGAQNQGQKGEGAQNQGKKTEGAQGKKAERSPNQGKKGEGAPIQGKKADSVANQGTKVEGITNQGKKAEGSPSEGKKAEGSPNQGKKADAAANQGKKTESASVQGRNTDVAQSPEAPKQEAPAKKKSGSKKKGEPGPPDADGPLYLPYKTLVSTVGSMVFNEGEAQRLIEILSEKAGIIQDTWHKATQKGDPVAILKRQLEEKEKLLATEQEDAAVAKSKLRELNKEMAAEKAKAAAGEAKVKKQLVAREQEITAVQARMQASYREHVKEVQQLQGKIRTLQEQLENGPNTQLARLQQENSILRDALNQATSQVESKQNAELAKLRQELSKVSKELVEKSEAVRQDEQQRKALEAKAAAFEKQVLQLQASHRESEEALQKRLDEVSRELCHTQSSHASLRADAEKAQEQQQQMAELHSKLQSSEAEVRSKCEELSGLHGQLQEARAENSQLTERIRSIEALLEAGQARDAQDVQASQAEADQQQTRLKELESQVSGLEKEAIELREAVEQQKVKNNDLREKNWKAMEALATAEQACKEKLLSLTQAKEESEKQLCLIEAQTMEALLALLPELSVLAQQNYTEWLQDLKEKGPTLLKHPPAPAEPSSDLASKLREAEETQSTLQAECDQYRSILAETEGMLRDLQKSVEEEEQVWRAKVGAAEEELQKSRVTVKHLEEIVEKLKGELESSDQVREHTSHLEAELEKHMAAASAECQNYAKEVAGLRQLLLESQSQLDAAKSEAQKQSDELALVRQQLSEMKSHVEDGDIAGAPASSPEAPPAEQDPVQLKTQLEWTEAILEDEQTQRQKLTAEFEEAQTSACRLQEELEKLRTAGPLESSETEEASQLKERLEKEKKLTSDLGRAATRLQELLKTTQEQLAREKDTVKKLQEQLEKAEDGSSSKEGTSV
UniProt P10301: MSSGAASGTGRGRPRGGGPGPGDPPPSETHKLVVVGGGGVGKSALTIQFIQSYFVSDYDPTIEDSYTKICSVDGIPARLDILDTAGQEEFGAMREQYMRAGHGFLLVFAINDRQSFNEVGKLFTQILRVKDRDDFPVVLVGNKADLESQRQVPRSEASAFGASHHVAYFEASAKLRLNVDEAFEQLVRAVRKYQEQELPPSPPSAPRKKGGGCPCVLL
UniProt O60942: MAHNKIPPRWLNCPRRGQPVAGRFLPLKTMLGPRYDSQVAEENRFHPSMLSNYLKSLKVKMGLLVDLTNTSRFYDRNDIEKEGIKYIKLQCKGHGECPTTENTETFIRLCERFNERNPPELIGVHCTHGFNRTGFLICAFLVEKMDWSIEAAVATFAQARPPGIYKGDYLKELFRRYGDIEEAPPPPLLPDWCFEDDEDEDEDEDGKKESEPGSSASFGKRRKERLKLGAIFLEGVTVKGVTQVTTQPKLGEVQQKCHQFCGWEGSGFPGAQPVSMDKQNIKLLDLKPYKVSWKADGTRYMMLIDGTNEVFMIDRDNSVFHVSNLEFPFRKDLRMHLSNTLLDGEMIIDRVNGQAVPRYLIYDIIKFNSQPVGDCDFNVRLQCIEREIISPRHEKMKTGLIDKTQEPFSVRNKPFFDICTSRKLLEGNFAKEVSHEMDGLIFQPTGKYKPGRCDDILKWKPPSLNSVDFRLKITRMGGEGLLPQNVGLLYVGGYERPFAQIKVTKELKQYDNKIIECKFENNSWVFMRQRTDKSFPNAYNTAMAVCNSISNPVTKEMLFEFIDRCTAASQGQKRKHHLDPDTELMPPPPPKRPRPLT
UniProt Q9H6T3, whole entry, looked up: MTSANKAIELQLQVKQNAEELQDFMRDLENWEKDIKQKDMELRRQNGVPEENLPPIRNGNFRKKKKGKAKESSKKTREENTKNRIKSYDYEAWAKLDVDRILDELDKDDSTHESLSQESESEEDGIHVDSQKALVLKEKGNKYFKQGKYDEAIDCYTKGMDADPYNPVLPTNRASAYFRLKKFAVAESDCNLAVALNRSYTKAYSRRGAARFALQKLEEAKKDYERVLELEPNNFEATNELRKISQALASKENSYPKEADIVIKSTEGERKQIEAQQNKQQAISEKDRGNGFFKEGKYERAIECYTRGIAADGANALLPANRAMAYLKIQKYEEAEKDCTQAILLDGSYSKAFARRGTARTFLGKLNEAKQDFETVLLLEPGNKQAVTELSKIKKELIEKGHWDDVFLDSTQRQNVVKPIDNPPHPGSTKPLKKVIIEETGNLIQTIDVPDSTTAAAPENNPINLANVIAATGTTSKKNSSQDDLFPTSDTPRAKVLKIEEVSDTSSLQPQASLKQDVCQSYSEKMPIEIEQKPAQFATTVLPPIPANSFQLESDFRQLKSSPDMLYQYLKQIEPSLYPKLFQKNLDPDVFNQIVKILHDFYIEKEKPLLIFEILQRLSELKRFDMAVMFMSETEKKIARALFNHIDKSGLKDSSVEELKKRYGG
UniProt Q92901: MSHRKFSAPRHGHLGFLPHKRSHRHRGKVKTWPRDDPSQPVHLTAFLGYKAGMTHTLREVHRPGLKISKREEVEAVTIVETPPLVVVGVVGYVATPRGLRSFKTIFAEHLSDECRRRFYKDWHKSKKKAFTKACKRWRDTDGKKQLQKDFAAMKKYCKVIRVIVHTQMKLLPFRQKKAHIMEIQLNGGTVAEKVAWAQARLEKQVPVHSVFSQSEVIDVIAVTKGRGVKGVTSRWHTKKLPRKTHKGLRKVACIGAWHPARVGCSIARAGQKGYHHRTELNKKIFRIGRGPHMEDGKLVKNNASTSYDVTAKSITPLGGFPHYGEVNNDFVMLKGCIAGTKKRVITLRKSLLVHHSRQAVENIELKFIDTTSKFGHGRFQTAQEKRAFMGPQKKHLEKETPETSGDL

What follows are targets tested with C[C@@H]1COCCN1C2=NC(=NC(=C2)C3(CC3)S(=O)(=O)C)C4=C5C=CNC5=CC=C4 (assay: log2 fold change, soluble protein after heating vs DMSO (PISA); higher = thermal stabilisation; K562 cells, 10 uM, 30 min; active = over 0.2 and 3.5 SD of the protein, either way, in both replicates (recomputed)).
In short: (§1)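 K562 cells at 2×10^6 cells/mL were treated for 30 min with 10 μM compound, and aliquots were heated for 3 min over 48°C-58°C before pooling. Extraction used PBS with 0.5% NP-40 at 4°C, and soluble protein was the supernatant after 21,000xg for 90 min, measured by TMTpro 16plex LC-MS/MS with channel sums equalised. Thermal stability values, relative to control samples and from duplicates, are log2 fold changes.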

log2 fold change, inactive:
RPL9 (UniProt P32969) -0.942
RNH1 (UniProt P13489) 0.091
RPL24 (UniProt P83731) -0.76
RPS17 (UniProt P08708) -0.358
RPL17 isoform 3 (UniProt P18621) -0.704
RPN1 (UniProt P04843) 0.054
RPP30 isoform 2 (UniProt P78346) -0.048
RPL15 (UniProt P61313) -1.3
RO60 (UniProt P10155) 0.034
RRM2B isoform 6 (UniProt Q7LG56) 0.055
RP2 (UniProt O75695) 0.074
RPP40 (UniProt O75818) -0.043
RPL36 (UniProt Q9Y3U8) -1.09
RPL11 (UniProt P62913) -1.18
RPL13 (UniProt P26373) -1.05
RNF25 (UniProt Q96BH1) 0.078
RPL8 (UniProt P62917) -1.13
RPS27 (UniProt P42677) -0.002
RPS19BP1 (UniProt Q86WX3) -0.407
RPL35 (UniProt P42766) -0.777
RPS10 (UniProt P46783) -0.308
RRBP1 (UniProt Q9P2E9) -0.588
RPL22 (UniProt P35268) -0.466
RPS6 (UniProt P62753) -0.59
RRAS (UniProt P10301) 0.012
RPL7 (UniProt P18124) -1.12
RPL13A (UniProt P40429) -1.22
RPL26 (UniProt P61254) -0.313
RPS29 (UniProt P62273) -0.191
RNGTT (UniProt O60942) 0.337
RPAP3 (UniProt Q9H6T3) -0.04
RPL3L (UniProt Q92901) -1.41

Each target was assayed with C[C@H](C1=CC=C(C=C1)C(=O)NC2=C3C=CNC3=NC=C2)N in the same assay as above.
In short: as §1

log2 fold change, inactive:
RPL9 (UniProt P32969) 0.561
RNH1 (UniProt P13489) -0.11
RPL24 (UniProt P83731) 0.376
RPS17 (UniProt P08708) 0.209
RPL17 isoform 3 (UniProt P18621) 0.332
RPN1 (UniProt P04843) -0.013
RPP30 isoform 2 (UniProt P78346) 0.012
RPL15 (UniProt P61313) 0.698
RO60 (UniProt P10155) -0.048
RRM2B isoform 6 (UniProt Q7LG56) -0.032
RP2 (UniProt O75695) 0.017
RPP40 (UniProt O75818) 0.006
RPL36 (UniProt Q9Y3U8) 0.6
RPL11 (UniProt P62913) 0.572
RPL13 (UniProt P26373) 0.716
RNF25 (UniProt Q96BH1) 0.024
RPL8 (UniProt P62917) 0.74
RPS27 (UniProt P42677) 0.248
RPS19BP1 (UniProt Q86WX3) 0.36
RPL35 (UniProt P42766) 0.317
RPS10 (UniProt P46783) 0.139
RRBP1 (UniProt Q9P2E9) 0.502
RPL22 (UniProt P35268) 0.455
RPS6 (UniProt P62753) 0.504
RRAS (UniProt P10301) -0.072
RPL7 (UniProt P18124) 0.644
RPL13A (UniProt P40429) 0.654
RPL26 (UniProt P61254) 0.139
RPS29 (UniProt P62273) 0.148
RNGTT (UniProt O60942) -0.049
RPAP3 (UniProt Q9H6T3) -0.015
RPL3L (UniProt Q92901) 0.667

These targets were tested with C[C@H](Nc1ncnc2nc[nH]c12)c1cc2cccc(Cl)c2c(=O)n1-c1ccccc1 [duvelisib] in the same assay as above.
In short: as §1

log2 fold change, inactive:
RPL9 (UniProt P32969) -0.315
RNH1 (UniProt P13489) 0.021
RPL24 (UniProt P83731) -0.234
RPS17 (UniProt P08708) -0.092
RPL17 isoform 3 (UniProt P18621) -0.199
RPN1 (UniProt P04843) 0.032
RPP30 isoform 2 (UniProt P78346) -0.012
RPL15 (UniProt P61313) -0.348
RO60 (UniProt P10155) 0.011
RRM2B isoform 6 (UniProt Q7LG56) 0.015
RP2 (UniProt O75695) 0.132
RPP40 (UniProt O75818) 0.004
RPL36 (UniProt Q9Y3U8) -0.269
RPL11 (UniProt P62913) -0.269
RPL13 (UniProt P26373) -0.326
RNF25 (UniProt Q96BH1) 0.047
RPL8 (UniProt P62917) -0.331
RPS27 (UniProt P42677) 0.057
RPS19BP1 (UniProt Q86WX3) -0.058
RPL35 (UniProt P42766) -0.226
RPS10 (UniProt P46783) -0.1
RRBP1 (UniProt Q9P2E9) -0.209
RPL22 (UniProt P35268) -0.167
RPS6 (UniProt P62753) -0.348
RRAS (UniProt P10301) 0.034
RPL7 (UniProt P18124) -0.356
RPL13A (UniProt P40429) -0.46
RPL26 (UniProt P61254) -0.114
RPS29 (UniProt P62273) -0.175
RNGTT (UniProt O60942) 0.091
RPAP3 (UniProt Q9H6T3) 0.002
RPL3L (UniProt Q92901) -0.335
